Assay results taken from patent US20240251795A1, “METHOD FOR C[…] RESISTANT PESTS & COMPOUNDS THEREFOR” (priority 2021, published 2024).
Some entries share one result that the patent states for a list of compounds.

What was measured:
[1] = tested on: multi-resistant Plutella xylostella larvae having the G4946E resistance mutation (strain R1); experiment: Resistant Plutella xylostella R1 (Diamond Back Moth) Larvicide L3, Feeding/Contact; assay type: in vivo; conditions: at 50 ppm or below, sprayed Chinese cabbage leaves, mortality and growth regulation 4 days after infestation
Method: Resistant Plutella xylostella R1 (Diamond Back Moth) Larvicide L3, Feeding/Contact
Chinese cabbage plants were sprayed with diluted test solutions in an application chamber. Cut off leaves were placed into petri dishes with wetted filter paper and infested 1 day after application with 10 L3 multi-resistant Plutella xylostella larvae having the G4946E resistance mutation. Samples were assessed 4 days after infestation for mortality and growth regulation. CTPR was used as standard and a resistance factor of 146 was obtained for this strain.
Plutella xylostella resistant strain R1 originally collected from Taiwan in 2012 that carries the RyR mutation G4946E conferring resistance to diamides. The strain is reared on cabbage plants (Brassica aleracea) and selected approximately every two weeks with chlorantraniliprole.

[2] = tested on: Plutella xylostella (Diamond back moth) ryanodine receptor, containing the G4946E resistance mutation; experiment: In vitro assay: calcium fluorescence (Fluo-8 NW, FDSS) in human embryonic kidney cells expressing the ryanodine receptor; assay type: cell-based; conditions: HEK cells expressing P. xylostella RyR G4946E; normalized against cyantraniliprole

Cc1c(NC(=O)c2cc(OCC(F)(F)F)nn2-c2ncccc2Cl)c(C(N)=O)cc2nc(C(F)(F)F)ccc12 [P.3, 6-[[2-(3-chloro-2-pyridyl)-5-(2,2,2-trifluoroethoxy)pyrazole-3-carbonyl]amino]-5-methyl-2-(trifluoromethyl)quinoline-7-carboxamide]
control of the resistant strain of Plutella xylostella R1 [1]: at least 80% | ratio REC50 = EC50 (compound)/EC50 (cyantraniliprole) [2]: ≤ 1

NC(=O)c1cc2cc(Br)ccc2c(Br)c1NC(=O)c1cc(C(F)(F)F)nn1-c1ncccc1Cl [P.4, 2-(3-chloro-2-pyridyl)-N-(1,6-dibromo-3-carbamoyl-2-naphthyl)-5-(trifluoromethyl)pyrazole-3-carboxamide]
control of the resistant strain of Plutella xylostella R1 [1]: at least 80%

Cc1c(NC(=O)c2cc(C(F)(F)F)nn2-c2ncccc2Cl)c(C(N)=O)cc2nc(C(F)(F)F)ccc12 [P.5, 6-[[2-(3-chloro-2-pyridyl)-5-(trifluoromethyl)pyrazole-3-carbonyl]amino]-5-methyl-2-(trifluoromethyl)quinoline-7-carboxamide]
control of the resistant strain of Plutella xylostella R1 [1]: at least 80% | ratio REC50 = EC50 (compound)/EC50 (cyantraniliprole) [2]: ≤ 1

Cc1c(NC(=O)c2cc(Br)nn2-c2ncccc2Cl)c(C(N)=O)cc2nc(C(F)(F)F)ccc12 [P.6, 6-[[5-bromo-2-(3-chloro-2-pyridyl)pyrazole-3-carbonyl]amino]-5-methyl-2-(trifluoromethyl)quinoline-7-carboxamide]
control of the resistant strain of Plutella xylostella R1 [1]: at least 80% | ratio REC50 = EC50 (compound)/EC50 (cyantraniliprole) [2]: ≤ 1

Cc1c(NC(=O)c2cc(C(F)F)nn2-c2ncccc2Cl)c(C(N)=O)cc2nc(C(F)(F)F)ccc12 [P.7, 6-[[2-(3-chloro-2-pyridyl)-5-(difluoromethyl)pyrazole-3-carbonyl]amino]-5-methyl-2-(trifluoromethyl)quinoline-7-carboxamide]
control of the resistant strain of Plutella xylostella R1 [1]: at least 80% | ratio REC50 = EC50 (compound)/EC50 (cyantraniliprole) [2]: ≤ 1

NC(=O)c1cc2cc(Br)ccc2c(Br)c1NC(=O)c1cc(Br)nn1-c1ncccc1Cl [P.8, 5-bromo-2-(3-chloro-2-pyridyl)-N-(1,6-dibromo-3-carbamoyl-2-naphthyl)pyrazole-3-carboxamide]
control of the resistant strain of Plutella xylostella R1 [1]: at least 80% | ratio REC50 = EC50 (compound)/EC50 (cyantraniliprole) [2]: ≤ 1

NC(=O)c1nc2ccccc2c(Cl)c1NC(=O)c1cc(OCC(F)(F)F)nn1-c1ncccc1Cl [P.9, 4-chloro-3-[[2-(3-chloro-2-pyridyl)-5-(2,2,2-trifluoroethoxy)pyrazole-3-carbonyl]amino]quinoline-2-carboxamide]
control of the resistant strain of Plutella xylostella R1 [1]: at least 80% | ratio REC50 = EC50 (compound)/EC50 (cyantraniliprole) [2]: ≤ 1

NC(=O)c1cc2ccccc2c(Cl)c1NC(=O)c1cc(C(F)(F)F)nn1-c1ncccc1Cl [P.10, N-(3-carbamoyl-1-chloro-2-naphthyl)-2-(3-chloro-2-pyridyl)-5-(trifluoromethyl)pyrazole-3-carboxamide]
ratio REC50 = EC50 (compound)/EC50 (cyantraniliprole) [2]: ≤ 1

NC(=O)c1cc2ccccc2c(Cl)c1NC(=O)c1cc(OCC(F)(F)F)nn1-c1ncccc1Cl [P.11, N-(3-carbamoyl-1-chloro-2-naphthyl)-2-(3-chloro-2-pyridyl)-5-(2,2,2-trifluoroethoxy)pyrazole-3-carboxamide]
ratio REC50 = EC50 (compound)/EC50 (cyantraniliprole) [2]: ≤ 1

NC(=O)c1cc2cc(Br)ccc2c(Br)c1NC(=O)c1cc(C(F)F)nn1-c1ncccc1Cl [P.12, 2-(3-chloro-2-pyridyl)-N-(1,6-dibromo-3-carbamoyl-2-naphthyl)-5-(difluoromethyl)pyrazole-3-carboxamide]
ratio REC50 = EC50 (compound)/EC50 (cyantraniliprole) [2]: ≤ 1

COc1cc(C(=O)Nc2c(C(N)=O)cc3ccccc3c2Cl)n(-c2ncccc2Cl)n1 [P.13, N-(3-carbamoyl-1-chloro-2-naphthyl)-2-(3-chloro-2-pyridyl)-5-methoxy-pyrazole-3-carboxamide]
ratio REC50 = EC50 (compound)/EC50 (cyantraniliprole) [2]: ≤ 1

NC(=O)c1cc2ccccc2c(Cl)c1NC(=O)c1cc(C(F)F)nn1-c1ncccc1Cl [P.14, N-(3-carbamoyl-1-chloro-2-naphthyl)-2-(3-chloro-2-pyridyl)-5-(difluoromethyl)pyrazole-3-carboxamide]
ratio REC50 = EC50 (compound)/EC50 (cyantraniliprole) [2]: ≤ 1

NC(=O)c1nc2ccccc2c(Cl)c1NC(=O)c1cc(Br)nn1-c1ncccc1Cl [P.18, 3-[[5-bromo-2-(3-chloro-2-pyridyl)pyrazole-3-carbonyl]amino]-4-chloro-quinoline-2-carboxamide]
ratio REC50 = EC50 (compound)/EC50 (cyantraniliprole) [2]: ≤ 1

NC(=O)c1cc2ccccc2c(Cl)c1NC(=O)c1cc(OC(F)F)nn1-c1ncccc1Cl [P.20, N-(3-carbamoyl-1-chloro-2-naphthyl)-2-(3-chloro-2-pyridyl)-5-(difluoromethoxy)pyrazole-3-carboxamide]
ratio REC50 = EC50 (compound)/EC50 (cyantraniliprole) [2]: ≤ 1

NC(=O)c1nc2ccccc2c(Cl)c1NC(=O)c1cc(C(F)(F)F)nn1-c1ncccc1Cl [P.23, 4-chloro-3-[[2-(3-chloro-2-pyridyl)-5-(trifluoromethyl)pyrazole-3-carbonyl]amino]quinoline-2-carboxamide]
ratio REC50 = EC50 (compound)/EC50 (cyantraniliprole) [2]: ≤ 1

NC(=O)c1cc2cc(Cl)ccc2c(Cl)c1NC(=O)c1cc(Cl)nn1-c1ncccc1Cl [P.24, N-(3-carbamoyl-1,6-dichloro-2-naphthyl)-5-chloro-2-(3-chloro-2-pyridyl)pyrazole-3-carboxamide]
ratio REC50 = EC50 (compound)/EC50 (cyantraniliprole) [2]: ≤ 1

NC(=O)c1cc2cc(Cl)ccc2c(Cl)c1NC(=O)c1cc(Br)nn1-c1ncccc1Cl [P.25, 5-bromo-N-(3-carbamoyl-1,6-dichloro-2-naphthyl)-2-(3-chloro-2-pyridyl)pyrazole-3-carboxamide]
control of the resistant strain of Plutella xylostella R1 [1]: at least 80% | ratio REC50 = EC50 (compound)/EC50 (cyantraniliprole) [2]: ≤ 1

NC(=O)c1cc2cc(Br)ccc2c(Cl)c1NC(=O)c1cc(Cl)nn1-c1ncccc1Cl [P.26, N-(6-bromo-3-carbamoyl-1-chloro-2-naphthyl)-5-chloro-2-(3-chloro-2-pyridyl)pyrazole-3-carboxamide]
control of the resistant strain of Plutella xylostella R1 [1]: at least 80% | ratio REC50 = EC50 (compound)/EC50 (cyantraniliprole) [2]: ≤ 1

NC(=O)c1cc2cc(Br)ccc2c(Cl)c1NC(=O)c1cc(C(F)(F)F)nn1-c1ncccc1Cl [P.28, N-(6-bromo-3-carbamoyl-1-chloro-2-naphthyl)-2-(3-chloro-2-pyridyl)-5-(trifluoromethyl)pyrazole-3-carboxamide]
control of the resistant strain of Plutella xylostella R1 [1]: at least 80% | ratio REC50 = EC50 (compound)/EC50 (cyantraniliprole) [2]: ≤ 1

NC(=O)c1cc2cc(Cl)ccc2c(Cl)c1NC(=O)c1cc(C(F)(F)F)nn1-c1ncccc1Cl [P.30, N-(3-carbamoyl-1,6-dichloro-2-naphthyl)-2-(3-chloro-2-pyridyl)-5-(trifluoromethyl)pyrazole-3-carboxamide]
control of the resistant strain of Plutella xylostella R1 [1]: at least 80% | ratio REC50 = EC50 (compound)/EC50 (cyantraniliprole) [2]: ≤ 1

NC(=O)c1cc2cc(Br)ccc2c(Br)c1NC(=O)c1cc(Cl)nn1-c1ncccc1Cl [P.31, 5-chloro-2-(3-chloro-2-pyridyl)-N-(1,6-dibromo-3-carbamoyl-2-naphthyl)pyrazole-3-carboxamide]
ratio REC50 = EC50 (compound)/EC50 (cyantraniliprole) [2]: ≤ 1

Cc1ccc2c(C)c(NC(=O)c3cc(C(F)(F)F)nn3-c3ncccc3Cl)c(C(N)=O)cc2c1 [P.32, N-(3-carbamoyl-1,6-dimethyl-2-naphthyl)-2-(3-chloro-2-pyridyl)-5-(trifluoromethyl)pyrazole-3-carboxamide]
ratio REC50 = EC50 (compound)/EC50 (cyantraniliprole) [2]: ≤ 1

Cc1c(NC(=O)c2cc(Br)nn2-c2ncccc2Cl)c(C(N)=O)cc2ncccc12 [P.33, 6-[[5-bromo-2-(3-chloro-2-pyridyl)pyrazole-3-carbonyl]amino]-5-methylquinoline-7-carboxamide]
ratio REC50 = EC50 (compound)/EC50 (cyantraniliprole) [2]: ≤ 1

Cc1c(NC(=O)c2cc(Br)nn2-c2ncccc2Cl)c(C(N)=O)cc2ncsc12 [P.42, 6-[[5-bromo-2-(3-chloro-2-pyridyl)pyrazole-3-carbonyl]amino]-7-methyl-1,3-benzothiazole-5-carboxamide]
ratio REC50 = EC50 (compound)/EC50 (cyantraniliprole) [2]: ≤ 1

Cc1c(NC(=O)c2cc(OCC(F)(F)F)nn2-c2ncccc2Cl)c(C(N)=O)cc2ncsc12 [P.44, 6-[[2-(3-chloro-2-pyridyl)-5-(2,2,2-trifluoroethoxy)pyrazole-3-carbonyl]amino]-7-methyl-1,3-benzothiazole-5-carboxamide]
ratio REC50 = EC50 (compound)/EC50 (cyantraniliprole) [2]: ≤ 1

Cc1nc2cc(C(N)=O)c(NC(=O)c3cc(Br)nn3-c3ncccc3Cl)c(C)c2s1 [P.45, 6-[[5-bromo-2-(3-chloro-2-pyridyl)pyrazole-3-carbonyl]amino]-2,7-dimethyl-1,3-benzothiazole-5-carboxamide]
ratio REC50 = EC50 (compound)/EC50 (cyantraniliprole) [2]: ≤ 1

COc1ccc2c(C)c(NC(=O)c3cc(Br)nn3-c3ncccc3Cl)c(C(N)=O)cc2n1 [P.48, 6-[[5-bromo-2-(3-chloro-2-pyridyl)pyrazole-3-carbonyl]amino]-2-methoxy-5-methyl-quinoline-7-carboxamide]
ratio REC50 = EC50 (compound)/EC50 (cyantraniliprole) [2]: ≤ 1
